Data as given in PubChem BioAssay AID720703 (Peter MacCallum Cancer Centre, 2013).

Assay: 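Kinase knock-down screen for links between AT1R and EGFR signalling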 (primary screen)
Cell system: immortalised, SV40-transformed mammary epithelial cells from human, with stable expression of tagged AT1R
Reagents: siRNA pool against human genes, 40 nM siRNA pool per well
Time to read-out: 72 h from transfection to lysis and read-out
Challenge: angiotensin II stimulation (dose and duration not given); EGFR inhibitor AG1478 also listed
Measured: 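AlphaScreen bead assay of phosphorylated ERK1/2 in cell lysates, corrected for well confluency, converted to robust z-scores and averaged across two technical replicate plates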
Reading the numbers: phospho-ERK z-score: higher = more ERK phosphorylation after angiotensin II, relative to plate
Rule for the call: 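Pools were ordered by robust z-score and 50 top-ranked pools, whether they raised or lowered the signal, were chosen for secondary testing; no numeric threshold was reported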
Calls: active = picked for secondary screen; inactive = not picked
The whole screen tested 714 reagents; this is a part drawn at random. 50 of them (7%) count as active. 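Chosen pools sit at both extremes, so both low and high scores count as candidates; some pools appear more than once.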 Some reagents were tested in more than one well and are listed for each.

target | phospho-ERK z-score, replicate mean | activity call
DCLK2 (doublecortin like kinase 2) | 1.64 | inactive
GRK1 (G protein-coupled receptor kinase 1) | -1.29 | active
MAP2K3 (mitogen-activated protein kinase kinase 3) | 0.26 | inactive
STK38L (serine/threonine kinase 38 like) | -0.8 | inactive
SPHK1 (sphingosine kinase 1) | -0.9 | inactive
TSSK2 (testis specific serine kinase 2) | 0.49 | inactive
GTF2H1 (general transcription factor IIH subunit 1) | -0.26 | inactive
EPHA2 (EPH receptor A2) | 0.06 | inactive
PKN2 (protein kinase N2) | 0.57 | inactive
NUP62 (nucleoporin 62) | 0.94 | inactive
NRBP1 (nuclear receptor binding protein 1) | -0.5 | inactive
IPMK (inositol polyphosphate multikinase) | 1.12 | inactive
MYLK3 (myosin light chain kinase 3) | 0.32 | inactive
PHKG1 (phosphorylase kinase catalytic subunit gamma 1) | 0.64 | inactive
DGKI (diacylglycerol kinase iota) | -0.18 | inactive
MAPKAPK3 (MAPK activated protein kinase 3) | 1.66 | inactive
EPHA7 (EPH receptor A7) | 1.38 | inactive
PKM (pyruvate kinase M1/2) | -0.24 | inactive
AURKB (aurora kinase B) | 0.48 | inactive
PIM2 (Pim-2 proto-oncogene, serine/threonine kinase) | 0.04 | inactive
FASTK (Fas activated serine/threonine kinase) | 0.35 | inactive
PIK3R1 (phosphoinositide-3-kinase regulatory subunit 1) | 0.59 | inactive
MERTK (MER proto-oncogene, tyrosine kinase) | -0.24 | inactive
PRKAA1 (protein kinase AMP-activated catalytic subunit alpha 1) | 2.84 | active
GK (glycerol kinase) | 0.48 | inactive
AK1 (adenylate kinase 1) | -0.04 | inactive
ITPKB (inositol-trisphosphate 3-kinase B) | 0.16 | inactive
SIK1 (salt inducible kinase 1) | -0.03 | inactive
SCYL1 (SCY1 like pseudokinase 1) | 0.58 | inactive
LYN (LYN proto-oncogene, Src family tyrosine kinase) | -0.7 | inactive
SGK1 (serum/glucocorticoid regulated kinase 1) | -0.34 | inactive
DYRK3 (dual specificity tyrosine phosphorylation regulated kinase 3) | 1.02 | inactive
LMBR1 (limb development membrane protein 1) | 0.09 | inactive
MAPK4 (mitogen-activated protein kinase 4) | 1.14 | inactive
CALM1 (calmodulin 1) | 4.05 | active
TAF1L (TATA-box binding protein associated factor 1 like) | 1.58 | inactive
PI4KB (phosphatidylinositol 4-kinase beta) | -0.19 | inactive
CDK9 (cyclin dependent kinase 9) | -0.11 | inactive
RYK (receptor like tyrosine kinase) | -0.72 | inactive
IP6K1 (inositol hexakisphosphate kinase 1) | 0.24 | inactive
TNK1 (tyrosine kinase non receptor 1) | 0.26 | inactive
LMTK1 (lemur tail kinase 1) | 0.28 | inactive
PRKAG3 (protein kinase AMP-activated non-catalytic subunit gamma 3) | 0.73 | inactive
BRSK1 (BR serine/threonine kinase 1) | 1.19 | inactive
BRSK1 (BR serine/threonine kinase 1) | -0.82 | inactive
CDK2 (cyclin dependent kinase 2) | -0.18 | inactive
FES (FES proto-oncogene, tyrosine kinase) | 3.41 | active
MAPK9 (mitogen-activated protein kinase 9) | -0.97 | inactive
CDK17 (cyclin dependent kinase 17) | 0.03 | inactive
LRRK2 (leucine rich repeat kinase 2) | -0.48 | inactive
RBKS (ribokinase) | 0.72 | inactive
HIPK1 (homeodomain interacting protein kinase 1) | -0.63 | inactive
ATP23 | -0.54 | inactive
PIK3R4 (phosphoinositide-3-kinase regulatory subunit 4) | -0.27 | inactive
DLG2 (discs large MAGUK scaffold protein 2) | 0.36 | inactive
RPS6KC1 (ribosomal protein S6 kinase C1) | -0.88 | inactive
TESK2 (testis associated actin remodelling kinase 2) | -0.11 | inactive
PRKCG (protein kinase C gamma) | 1.39 | inactive
BMPR1B (bone morphogenetic protein receptor type 1B) | -1.19 | inactive
ACVR1B (activin A receptor type 1B) | -0.74 | inactive
ROS1 (ROS proto-oncogene 1, receptor tyrosine kinase) | -0.23 | inactive
VRK2 (VRK serine/threonine kinase 2) | 0.78 | inactive
BMPR1A (bone morphogenetic protein receptor type 1A) | 3.54 | active
ACVRL1 (activin A receptor like type 1) | 0.66 | inactive
DUSP21 (dual specificity phosphatase 21) | 0.75 | inactive
PKIB (cAMP-dependent protein kinase inhibitor beta) | 1.12 | inactive
DGKK (diacylglycerol kinase kappa) | -0.2 | inactive
MAP3K21 (mitogen-activated protein kinase kinase kinase 21) | 0.18 | inactive
INSRR (insulin receptor related receptor) | 1.27 | inactive
SRPK3 (SRSF protein kinase 3) | 0.02 | inactive
PIM1 (Pim-1 proto-oncogene, serine/threonine kinase) | 0.7 | inactive
CALM2 (calmodulin 2) | -0.4 | inactive
ADCK2 (aarF domain containing kinase 2) | -0.76 | inactive
PGK2 (phosphoglycerate kinase 2) | 0.1 | inactive
WNK1 (WNK lysine deficient protein kinase 1) | 0.16 | inactive

Records listed so far whose gene name starts with T or t:
target | phospho-ERK z-score, replicate mean | activity call
TSSK2 (testis specific serine kinase 2) | 0.49 | inactive
TAF1L (TATA-box binding protein associated factor 1 like) | 1.58 | inactive
TNK1 (tyrosine kinase non receptor 1) | 0.26 | inactive
TESK2 (testis associated actin remodelling kinase 2) | -0.11 | inactive
